Values from PubChem BioAssay AID1259424 (University of Nebraska Medical Center, 2018).
Shown is a random part of about 14,000 reagents. 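Higher correlation or smaller distance means closer resemblance to KSR1 loss; control wells, including KSR1 knockdowns, recur on many plates.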 Further read-outs or replicates are left out here. Not stated in the record: the time to read-out.

- Screen: 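Rank knockdowns across the genome by resemblance to the KSR1 depletion profile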 (primary screen)
- Cells: human HCT116 colon cancer cells
- Knock-down reagent: siRNA pool against human genes, 50 nM
- Detection: 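Six signature mRNAs by branched-DNA multiplex assay, scaled to two housekeeping genes and non-targeting median, log2; matched to mean KSR1 knockdown profile by Pearson correlation and euclidean distance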
- Reading the numbers: mean correlation with KSR1 profile: higher = expression change more like KSR1 knockdown; mean distance from KSR1 profile: higher = expression change less like KSR1 knockdown

ADAMTS15
- mean correlation with KSR1 profile: -0.425
- mean distance from KSR1 profile: 2.43

CCDC170
- mean correlation with KSR1 profile: 0.19
- mean distance from KSR1 profile: 1.71

MTMR11
- mean correlation with KSR1 profile: -0.937
- mean distance from KSR1 profile: 1.99

MEDAG
- mean correlation with KSR1 profile: 0.165
- mean distance from KSR1 profile: 1.66

PDZD11
- mean correlation with KSR1 profile: 0.723
- mean distance from KSR1 profile: 0.766

ANP32CP
- mean correlation with KSR1 profile: 0.466
- mean distance from KSR1 profile: 1.1

CNOT9
- mean correlation with KSR1 profile: 0.063
- mean distance from KSR1 profile: 3.49

CEBPA-DT
- mean correlation with KSR1 profile: 0.659
- mean distance from KSR1 profile: 2.02

SETD3
- mean correlation with KSR1 profile: 0.664
- mean distance from KSR1 profile: 1.9

FIGN
- mean correlation with KSR1 profile: -0.526
- mean distance from KSR1 profile: 2.86

PGGHG
- mean correlation with KSR1 profile: -0.327
- mean distance from KSR1 profile: 2.21

LMOD1
- mean correlation with KSR1 profile: 0.753
- mean distance from KSR1 profile: 2.24

APOBEC3C
- mean correlation with KSR1 profile: 0.541
- mean distance from KSR1 profile: 2.09

UST
- mean correlation with KSR1 profile: -0.128
- mean distance from KSR1 profile: 1.91

VCAN
- mean correlation with KSR1 profile: 0.721
- mean distance from KSR1 profile: 1.33

FLCN
- mean correlation with KSR1 profile: -0.242
- mean distance from KSR1 profile: 2.26

SRC
- mean correlation with KSR1 profile: 0.564
- mean distance from KSR1 profile: 1.17

TEP1
- mean correlation with KSR1 profile: 0.184
- mean distance from KSR1 profile: 2.24

UCP2
- mean correlation with KSR1 profile: -0.167
- mean distance from KSR1 profile: 1.55

RFXANK
- mean correlation with KSR1 profile: 0.743
- mean distance from KSR1 profile: 1.27

MYDGF
- mean correlation with KSR1 profile: -0.209
- mean distance from KSR1 profile: 3.11

GAB3
- mean correlation with KSR1 profile: 0.171
- mean distance from KSR1 profile: 1.7

ANXA13
- mean correlation with KSR1 profile: 0.126
- mean distance from KSR1 profile: 1.66

EBF2
- mean correlation with KSR1 profile: -0.0977
- mean distance from KSR1 profile: 2.25

H4C13
- mean correlation with KSR1 profile: 0.692
- mean distance from KSR1 profile: 1.29

RPH3A
- mean correlation with KSR1 profile: -0.333
- mean distance from KSR1 profile: 2.36

ART3
- mean correlation with KSR1 profile: -0.456
- mean distance from KSR1 profile: 3.77

MPHOSPH9
- mean correlation with KSR1 profile: -0.244
- mean distance from KSR1 profile: 2.71

KLHL28
- mean correlation with KSR1 profile: -0.146
- mean distance from KSR1 profile: 2.51

FAF1
- mean correlation with KSR1 profile: -0.323
- mean distance from KSR1 profile: 2.19

EIF3B
- mean correlation with KSR1 profile: -0.489
- mean distance from KSR1 profile: 5.04

PPP1R14A
- mean correlation with KSR1 profile: 0.573
- mean distance from KSR1 profile: 0.928

EDNRA
- mean correlation with KSR1 profile: -0.231
- mean distance from KSR1 profile: 1.98

DCLRE1C
- mean correlation with KSR1 profile: 0.285
- mean distance from KSR1 profile: 1.31

KDM4C
- mean correlation with KSR1 profile: -0.938
- mean distance from KSR1 profile: 1.21

USP25
- mean correlation with KSR1 profile: -0.414
- mean distance from KSR1 profile: 2.38

Limited to “mean distance from KSR1 profile”, for 4 of the entries above:
KLHL28	2.51
FAF1	2.19
EIF3B	5.04
PPP1R14A	0.928
